PubChem BioAssay AID1259424 – University of Nebraska Medical Center – 2018
The whole screen tested about 14,000 reagents; below is a part drawn at random. 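Higher correlation or smaller distance means closer resemblance to KSR1 loss; control wells, including KSR1 knockdowns, recur on many plates.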 Not all columns of the deposit are shown. Not stated in the record: the time to read-out.

Screen: 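Find knockdowns that reproduce the expression shifts seen after KSR1 loss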 (primary screen)
System: human HCT116 colon cancer cells
Reagents: siRNA pool against human genes, 50 nM
Read-out: 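Six signature mRNAs by branched-DNA multiplex assay, scaled to two housekeeping genes and non-targeting median, log2; matched to mean KSR1 knockdown profile by Pearson correlation and euclidean distance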
Reading the numbers: mean correlation with KSR1 profile: higher = expression change more like KSR1 knockdown

{"gene symbol": "RPL23AP32", "PubChem SID": "SID364001568", "mean correlation with KSR1 profile": 0.326}
{"gene symbol": "FPR1", "PubChem SID": "SID363993239", "mean correlation with KSR1 profile": 0.838}
{"gene symbol": "NAT10", "PubChem SID": "SID364002956", "mean correlation with KSR1 profile": -0.337}
{"gene symbol": "CDH2", "PubChem SID": "SID363993011", "mean correlation with KSR1 profile": 0.0947}
{"gene symbol": "AJAP1", "PubChem SID": "SID364001212", "mean correlation with KSR1 profile": -0.0912}
{"gene symbol": "PELO", "PubChem SID": "SID363999741", "mean correlation with KSR1 profile": -0.708}
{"gene symbol": "DEFA6", "PubChem SID": "SID363993139", "mean correlation with KSR1 profile": -0.0909}
{"gene symbol": "HSPB8", "PubChem SID": "SID363998789", "mean correlation with KSR1 profile": 0.782}
{"gene symbol": "LAMC1", "PubChem SID": "SID363993491", "mean correlation with KSR1 profile": -0.329}
{"gene symbol": "C19orf12", "PubChem SID": "SID364003631", "mean correlation with KSR1 profile": 0.278}
{"gene symbol": "SLC17A1", "PubChem SID": "SID363996011", "mean correlation with KSR1 profile": 0.0861}
{"gene symbol": "POLR3A", "PubChem SID": "SID363997786", "mean correlation with KSR1 profile": -0.449}
{"gene symbol": "CCDC86", "PubChem SID": "SID364002747", "mean correlation with KSR1 profile": -0.739}
{"gene symbol": "BCL9", "PubChem SID": "SID363995315", "mean correlation with KSR1 profile": 0.177}
{"gene symbol": "CTRC", "PubChem SID": "SID363997961", "mean correlation with KSR1 profile": -0.549}
{"gene symbol": "NTRK2", "PubChem SID": "SID363997006", "mean correlation with KSR1 profile": -0.431}
{"gene symbol": "DELEC1", "PubChem SID": "SID364000299", "mean correlation with KSR1 profile": -0.497}
{"gene symbol": "PAM16", "PubChem SID": "SID363999842", "mean correlation with KSR1 profile": -0.518}
{"gene symbol": "HEMK2", "PubChem SID": "SID363998364", "mean correlation with KSR1 profile": 0.486}
